± gives the standard deviation of the averaged measurements. The list shows a part of the results. Many values rest on one well or one pass, so single values are uncertain.

The subject of this test is RAW 264.7 macrophages infected with S. aureus JE2-lux. Kind of test: host macrophage viability (CellTiter-Fluor) relative to DMSO vehicle; higher = more viable host cells. To be noted: 10 µM; treatment time 4 h; gentamicin 50 µg/ml.
With `CCN(Cc1ccccc1)C(=O)CCN1C(=O)/C(=C\c2ccco2)SC1=S`, the host macrophage viability was determined as 128%.

Take `O=S1(=O)N=C(SCc2cccc(F)c2)Nc2ccc(Cl)cc21`: the host macrophage viability was determined as 120%.

With `CC(=O)N1CCc2cc(NC(=O)CSc3nnc4ccccn34)ccc21`, the host macrophage viability amounted to 130%.

Regarding `CC(C)c1cc(C(=O)Nc2cccc(-c3nc4ccccc4o3)c2)nn1C1CCS(=O)(=O)C1` (stereo not given), the host macrophage viability stood at 134%.

Turning to `NC(=O)c1ccsc1NC(=O)c1sc2ccccc2c1Cl`, the host macrophage viability worked out at 133%.

With `CCOC(=O)Cc1ccc(NC(=O)Nc2ccc(Sc3c(CC)c(C)nc4ncnn34)cc2)cc1`, the host macrophage viability stood at 102%.

`COc1cc(C(=O)Nc2cccc(C(=O)N3CCCCC3)c2)c2ccccc2n1`: the host macrophage viability was determined as 106%.

Consider `Cn1c(=O)c2c(nc(NCc3cccnc3)n2CC(=O)c2ccccc2)n(C)c1=O`, for which the host macrophage viability is 131%.

Consider `N#Cc1c(NC(=O)c2ccc(-c3nc4ccccc4s3)s2)sc2c1CCC2`, for which the host macrophage viability is 127%.

As to `CCOC(=O)c1c(NC(=S)NC(=O)c2ccc(C(=O)OC)cc2)sc(OC(=O)CC)c1C`, the host macrophage viability is 113 ± 5.2%.

`COC(=O)c1cc(OC)c(OC)cc1NC(=O)c1cc2ccccc2oc1=O`: the host macrophage viability is 95.3%.

`COCCNC(=O)c1c(N)n(/N=C/c2ccncc2)c2nc3ccccc3nc12`: the host macrophage viability amounted to 114%.

For the molecule `O=C1CC(Nc2ccc(N3CCOCC3)cc2)C(=O)N1` (stereo not given), the host macrophage viability is 120%.

In the case of `O=C(CC1Sc2ccccc2NC1=O)Nc1ccccc1F` (stereo not given), the host macrophage viability is 126%.

Turning to `CCOC(=O)c1ccccc1NC(=O)CSc1nnc(C2CCCCC2)n1-n1cccc1`, the host macrophage viability came out at 112%.

`CC(=O)C1=C(C)Nc2ncnn2C1c1ccc(C(C)C)cc1` (stereo not given): the host macrophage viability is 113%.

Turning to `COc1ccc(Cn2c(C)nc3cc(Cl)c(NC(=O)c4ccncc4)cc3c2=O)cc1`, the host macrophage viability is 100%.

`O=C(Nc1nc2ccc(F)cc2s1)c1ccc2c(c1)CCCC2`: the host macrophage viability is 89.5%.

For the molecule `CS(=O)(=O)Nc1cccc(C2=NN(C(=O)C3CCCCC3)C(c3cccc(F)c3)C2)c1` (stereo not given), the host macrophage viability was 93.7%.

Consider `O=C(NNc1nc2c(F)cc(F)cc2s1)c1coc2ccccc2c1=O`, for which the host macrophage viability was 108 ± 3.7%.

Turning to `Cc1nc(SCC(=O)Nc2cccc(F)c2)[nH]c(=O)c1C`, the host macrophage viability is 114%.

Regarding `Cc1sc2nc(SCC(=O)Nc3ccc(S(N)(=O)=O)cc3)[nH]c(=O)c2c1C`, the host macrophage viability came out at 104%.

With `CCOc1ccc(-n2c(=O)[nH]c3c(C(N)=O)nc(-c4ccc(C)o4)nc32)cc1`, the host macrophage viability was 116%.

In the case of `COc1ccc(OC)c2sc(NNC(=O)c3c(F)cccc3F)nc12`, the host macrophage viability is 117 ± 8.2%.

Take `COc1ccc(NC(=O)CC2NC(=O)NC2=O)cc1` (stereo not given): the host macrophage viability came out at 113%.

Consider `NS(=O)(=O)c1ccc(NC2=NC(=O)C(CC(=O)O)S2)cc1` (stereo not given), for which the host macrophage viability was 117%.

For the molecule `C#CCOc1cccc(C2CC(=O)Nc3c2cnn3-c2nc3ccccc3s2)c1` (stereo not given), the host macrophage viability worked out at 118%.

Regarding `O=C1C2ON(c3ccc(Cl)cc3)C(c3ccc(F)cc3)C2C(=O)N1c1ccc([N+](=O)[O-])cc1` (stereo not given), the host macrophage viability amounted to 102%.

Regarding `O=C(CSc1ncnc2c1sc1nc3ccccc3cc12)Nc1ccc2c(c1)OCO2`, the host macrophage viability came out at 124%.

`O=C(C1=C(O)C(=O)N(c2nncs2)C1c1ccc(F)cc1)c1cccs1` (stereo not given): the host macrophage viability is 122%.

For the molecule `CCOC(=O)c1c(NC(=O)CSc2ccccc2N)sc(C(C)=O)c1C`, the host macrophage viability came to 115%.

On to `C=CCNC(=O)c1ccc(COc2ccccc2Cl)o1`, for which the host macrophage viability turned out to be 128%.

For `C=CCn1c(SCC(=O)NCc2cccnc2)nc2sc3c(c2c1=O)CCCC3`, the host macrophage viability was determined as 115 ± 7%.

For `CC(=O)NC(=O)c1cc2cc(Cl)ccc2o/c1=N\c1cccc2ccccc12`, the host macrophage viability stood at 106 ± 3.2%.

In the case of `CCS(=O)(=O)c1ccccc1C(=O)Nc1ccc(C)cc1C(=O)c1ccccc1`, the host macrophage viability is 108%.

In the case of `Cc1c(-c2ccccc2)n[nH]c1C(=O)Nc1cccc(C(=O)N2CCCCC2)c1`, the host macrophage viability came out at 115%.

As for `COc1ccc(/C(C)=N/N2CC(=O)Nc3ccccc32)cc1`, the host macrophage viability worked out at 122%.

Take `COc1ccccc1CNC(=O)CSc1nnc2c(n1)[nH]c1ccc(F)cc12`: the host macrophage viability turned out to be 103%.

With `CCOCCCNC(=O)c1ncoc1-c1ccc(F)cc1`, the host macrophage viability is 94.2%.

Regarding `O=C(O)CCCNc1ncnc2c1oc1ccccc12`, the host macrophage viability was found to be 121%.

In the case of `O=C(CSc1ncc(S(=O)(=O)c2ccc(Cl)cc2)c(=O)[nH]1)Nc1ccc2c(c1)OCCO2`, the host macrophage viability was found to be 118%.

For `CCOC(=O)c1ccc(Nc2[nH]c(=O)c3ccccc3c2C(=O)c2ccncc2)cc1`, the host macrophage viability turned out to be 101%.

Take `NC(=O)CSC1=NS(=O)(=O)c2cc(Cl)ccc2N1`: the host macrophage viability is 123%.

As for `Cc1cc(NC(=O)C2CCN(S(=O)(=O)c3cc(-c4noc(C)n4)sc3C)CC2)c2ccccc2n1`, the host macrophage viability is 112%.

With `CCCNC(=O)NCC(c1cccnc1)c1c[nH]c2ccccc12` (stereo not given), the host macrophage viability came out at 120%.

As to `CCNc1nc(Nc2ccc(Cl)cc2)c2cnn(C)c2n1`, the host macrophage viability was 110%.

As for `CCCCC1CCC(C(=O)Nc2cc(C)nn2-c2ncnc3c2cnn3-c2ccc(Cl)cc2)CC1` (stereo not given), the host macrophage viability came out at 116%.

Consider `CC1CCc2c(sc(NC(=O)C(C)Oc3cccc(Br)c3)c2C#N)C1` (stereo not given), for which the host macrophage viability is 106%.

Consider `CCCc1cc(C(=O)Nc2ccc3c(c2)CC(C)N3C(C)=O)[nH]n1` (stereo not given), for which the host macrophage viability amounted to 114%.

Take `O=C(COc1ccc2ccccc2c1)Nc1nnc2n1CCS2`: the host macrophage viability was 127%.

In the case of `N#CC1=C(N)OC2=C(C(=O)CC(c3ccccc3)C2)C1C1CCCCC1` (stereo not given), the host macrophage viability stood at 103%.

As to `COc1ccc(Cn2ccc3nc(C)c(C(=O)NCc4ccc(Cl)cc4)cc3c2=O)cc1`, the host macrophage viability is 129%.

With `Nn1c(SCC(=O)N2CCCCCC2)nncc1=O`, the host macrophage viability amounted to 114%.

As to `CC(=O)Nc1cccc(NC(=O)CSc2nc(=O)n3cc(Cl)ccc3n2)c1`, the host macrophage viability turned out to be 105%.

With `CC1CCCCN1S(=O)(=O)c1ccc(C(=O)Nc2ccccc2Oc2ccccc2)cc1` (stereo not given), the host macrophage viability was found to be 104%.

Consider `COc1ccc2cc(CCNC(=O)c3ccc([N+](=O)[O-])cc3)c(=O)[nH]c2c1`, for which the host macrophage viability was 133%.

Consider `CC(=O)C(C)n1c(CN2CCN(C(=O)c3ccco3)CC2)nc2c1c(=O)n(C)c(=O)n2C` (stereo not given), for which the host macrophage viability amounted to 104%.

For `Cc1nc(-c2ccccc2)c(CC(=O)NC(c2cccs2)C(C)C)s1` (stereo not given), the host macrophage viability amounted to 117%.

`Cc1ccccc1/N=c1\oc2ccc([N+](=O)[O-])cc2cc1C(N)=O`: the host macrophage viability amounted to 116 ± 11%.

For `CCN(C(=O)Cc1ccccc1OC)c1nc2c(s1)CCc1occc1-2`, the host macrophage viability worked out at 136%.

With `Cc1cc(C)n(-c2cc(N3CCN(c4ccccc4)CC3)ncn2)n1`, the host macrophage viability was 86.3%.

On to `COC(=O)c1ccc(NC(=O)CSc2nc3sc4c(c3c(=O)[nH]2)CCCC4)cc1`, for which the host macrophage viability is 110%.

Take `CC(C)C(C(=O)Nc1ccccc1)N1C(=O)c2ccccc2C1=O` (stereo not given): the host macrophage viability amounted to 99.6%.

As for `Cc1ccc(C)c2[nH]c(=O)c(CCNC(=S)NCCn3ccc4ccccc43)cc12`, the host macrophage viability came to 106 ± 10%.

Regarding `Cc1nc(Oc2cccc(Cl)c2)c2c3c(sc2n1)CCCC3`, the host macrophage viability was found to be 124%.

Turning to `Cc1nn2c(C)c(C(=O)Nc3ccc(C(C)C)cc3)cnc2c1-c1ccccc1`, the host macrophage viability turned out to be 137%.

Take `N#CC1=C(S)N(c2ccccc2)C(c2ccc(-c3ccccc3[N+](=O)[O-])o2)NC1=O` (stereo not given): the host macrophage viability is 125%.

`CCc1c(C)nc(N2CCN(c3cccc(OC)c3)CC2)[nH]c1=O`: the host macrophage viability turned out to be 139%.

As for `O=C(CN(Cc1ccco1)C(=O)C(=O)Nc1ccc2c(c1)OCCO2)NC1CCCC1`, the host macrophage viability is 107%.

With `O=C(CCSc1ccc(F)cc1)Nc1nc2c(s1)CCC2`, the host macrophage viability came out at 116%.

As for `CCOc1ccc(NC(=O)c2nc3c(=O)n(Cc4ccccc4C)c4cc(C)ccc4n3n2)cc1`, the host macrophage viability came to 112%.

Regarding `COc1cc2nc(NC(=O)c3cc4cc([N+](=O)[O-])ccc4s3)sc2cc1OC`, the host macrophage viability turned out to be 103%.

As for `O=c1nc(SCc2cccc3ccccc23)c2c(n1CCO)CCCC2`, the host macrophage viability came to 100%.

Regarding `COC(=O)c1ccc(NC(=O)CCN2C(=O)CSC2=O)cc1`, the host macrophage viability is 119%.

As to `COc1ccc(CCNc2nccn(Cc3ccc(Cl)cc3)c2=O)cc1OC`, the host macrophage viability is 117%.

On to `O=C(NC1CC(=O)N(c2ccc3c(c2)OCCO3)C1)N1CCN(c2ccccc2F)CC1` (stereo not given), for which the host macrophage viability is 120%.

On to `CC(=O)Nc1nc(C(=O)Nc2ccc3nc(C)[nH]c3c2)cs1`, for which the host macrophage viability was 110%.

With `Fc1ccc2nc(Nc3nc(-c4cccs4)cs3)sc2c1`, the host macrophage viability amounted to 119 ± 12%.

Turning to `Cc1sc2nc(C)n(C3CCN(C(=O)c4n[nH]c5c4CCC5)CC3)c(=O)c2c1C`, the host macrophage viability was found to be 116%.

Consider `Cc1cccc(CSC2=NCCN2C(=O)c2cccs2)c1`, for which the host macrophage viability amounted to 100 ± 12%.

`COc1ccc2oc(=O)c(/C(N)=N/NC(=O)c3ccncc3)cc2c1`: the host macrophage viability was 116 ± 6.1%.

For `O=C(NCc1cccnc1)c1ncoc1-c1cccc(Cl)c1`, the host macrophage viability is 93.1%.

Turning to `CSc1ccccc1NC(=O)c1cnc2n(c1=O)CCS2`, the host macrophage viability came to 121%.

In the case of `O=C(CSc1nc(-c2ccccc2)c2ccccc2n1)NCc1ccc2c(c1)OCO2`, the host macrophage viability was 124%.

For the molecule `Cn1ncc2c(NCc3ccccc3)nc(NC3CCCC3)nc21`, the host macrophage viability is 109%.

On to `Clc1ccc(Cl)c2sc(N3CCOCC3)nc12`, for which the host macrophage viability is 107 ± 11%.

Take `COc1ccccc1OCCN(C)C(=O)c1sc2ncn(C)c(=O)c2c1C`: the host macrophage viability was determined as 128%.

Consider `O=c1nc(SCc2c(F)cccc2Cl)c2c([nH]1)CCC2`, for which the host macrophage viability was 109%.

Consider `CCOC(=O)c1c(C)oc2c1cc(NS(=O)(=O)c1cccc3cccnc13)c1ccccc12`, for which the host macrophage viability turned out to be 120%.

Regarding `CCc1cccc(CC)c1NC(=O)CSc1nnc(NC(=O)c2ccco2)s1`, the host macrophage viability turned out to be 119%.

As for `C=CCOCC(O)Cn1c(N2CCN(Cc3ccccc3)CC2)nc2c1c(=O)[nH]c(=O)n2C` (stereo not given), the host macrophage viability worked out at 109%.

In the case of `O=c1[nH]c(=O)n(C2CC(O)C(CO)O2)cc1I` (stereo not given), the host macrophage viability is 105%.

`Cc1ccc(NC(=O)Nc2c(-n3cnnc3)nn(C)c2C)cc1`: the host macrophage viability was 89.8%.

For the molecule `Cc1nc(CNS(=O)(=O)c2cc([N+](=O)[O-])ccc2C)cs1`, the host macrophage viability was found to be 109 ± 9.9%.

On to `COc1ccc([N+](=O)[O-])cc1NC(=O)c1ccccc1NS(=O)(=O)c1ccccc1`, for which the host macrophage viability was 96.7%.

In the case of `O=C1C=C/C(=N\Oc2ccc([N+](=O)[O-])cc2[N+](=O)[O-])c2cccnc21`, the host macrophage viability came to 94.9%.

Consider `COCCn1ccc2nc(C)c(C(=O)Nc3cc(OC)cc(OC)c3)cc2c1=O`, for which the host macrophage viability was determined as 121%.

`Cc1oc2ncnc(Oc3ccccc3F)c2c1C`: the host macrophage viability is 131%.

Regarding `COc1ccc(C2NC(=S)NC(C)=C2C(=O)Nc2ccc(F)c(F)c2)cc1OC` (stereo not given), the host macrophage viability stood at 112%.

Turning to `O=C(Nc1nc2c(Cl)c(Cl)ccc2s1)c1cc2ccccc2oc1=O`, the host macrophage viability was determined as 98.6%.

With `COc1ccc(-c2ocnc2C(=O)N2CCC(C(N)=O)CC2)cc1OC`, the host macrophage viability worked out at 117%.

Consider `COC(=O)c1ccccc1NC(=O)c1cnc2c(-c3ccccc3)c(C)nn2c1C`, for which the host macrophage viability was 134%.

With `Cc1nc(NCCC2=CCCCC2)c2onc(-c3ccccc3)c2n1`, the host macrophage viability is 82.4%.

Take `O=C(NCCCN1CCOCC1)c1cc(-c2ccccc2)nc2n[nH]c(-c3ccc(F)cc3)c12`: the host macrophage viability is 117%.

Consider `CC(C)CNC(=S)N1CCC(n2cnc3cc(F)ccc32)CC1`, for which the host macrophage viability amounted to 107%.
